{
  "source": "patent US12103941B2",
  "about": "“Radiation-activatable platinum complex, its preparation and therapeutic use” (City University of Hong Kong, priority 2022, dated 2024)",
  "assay": "ROS generation upon sono-activation (SOSG fluorescence, EPR with TEMP or DMPO)",
  "details": "FUS activation 4 W, 15 min",
  "data": [
    {"smiles": "CCCN1/C(=C/C=C2\\CCCC(/C=C/C3=[N+](CCC)c4ccccc4C3(C)C)=C2Oc2ccc(CCC(=O)[O][Pt]3([NH2])([NH2])([OH])[O]C(=O)C4(CCC4)C(=O)[O]3)cc2)C(C)(C)c2ccccc21", "note": "[complex 1, cyaninplatin]", "values": [
      {"measurement": "hydroxyl radical generation (EPR with DMPO)", "value": "no signal pulse was observed"},
      {"measurement": "singlet oxygen generation (SOSG emission, EPR with TEMP)", "value": "release of singlet oxygen"}
    ]}
  ]
}
